# Some of the results follow. The data scatter; read single values as rough.
# Molecular target: T1, SH3RF1 C700 (UniProt Q7Z6J0)
# T1 sequence (whole entry): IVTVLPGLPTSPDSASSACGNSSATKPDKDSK
# Experiment: log2 mean competition ratio of IA-DTB cysteine labelling (DMSO/compound) (log2 ratio); higher = stronger cysteine engagement by compound
# Details: 50 µM; treatment time: 4 h; cell line lysate: HEK293T
# Protocol: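 IA-DTB competitive cysteine chemoproteomics in HEK293T RIPA lysate. Lysates were treated with compound 29 or 30 at 50 or 200 µM for 4 h, then IA-DTB (500 µM, 1 h), trypsin-digested, NeutrAvidin-enriched and analysed by diaPASEF. Competition ratio = intensity DMSO / intensity compound (n=4 treated, n=64 DMSO); binding: mean log2 CR ≥ 1 and p ≤ 0.05 plus QC filters. Target is the cysteine site.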
row,Structure (SMILES),log2 mean competition ratio
1,O=C(CCl)N[C@H]1CCCc2ccccc21,-0.403
2,O=C(CCl)N[C@@H]1CCCc2ccccc21,-0.251

# Same assay, conditions: 200 µM; treatment time: 4 h; cell line lysate: HEK293T
row,Structure (SMILES),log2 mean competition ratio
1,O=C(CCl)N[C@H]1CCCc2ccccc21,0.114
2,O=C(CCl)N[C@@H]1CCCc2ccccc21,0.0405

# Source: the supplement of paper PMC11732987, “Enantioselective OTUD7B fragment discovery through chemoproteomics screening and high-throughput optimisation” (Communications Chemistry, 2025)
